Source: article doi:10.1101/2023.08.25.554913 (bioRxiv, 2023)
Results are given in words; binding and its absence hold for the method and conditions named. Some entries that bind do so weakly or less than the wild type.

Molecular target: PfuAmyGT (PF0272) from Pyrococcus furiosus, wild type (Pyrococcus furiosus) (UniProt P49067)
Assay: native gel or EMSA

B1: PfuAmyGT (PF0272) from Pyrococcus furiosus, wild type (enzyme, UniProt P49067 1-649, looked up)
chain: MGDKINFIFGIHNHQPLGNFGWVFEEAYEKCYWPFLETLEEYPNMKVAIHTSGPLIEWLQDNRPEYIDLLRSLVKRGQVEIVVAGFYEPVLASIPKEDRIEQIRLMKEWAKSIGFDARGVWLTERVWQPELVKTLKESGIDYVIVDDYHFMSAGLSKEELYWPYYTEDGGEVIAVFPIDEKLRYLIPFRPVDKVLEYLHSLIDGDESKVAVFHDDGEKFGIWPGTYEWVYEKGWLREFFDRISSDEKINLMLYTEYLEKYKPRGLVYLPIASYFEMSEWSLPAKQARLFVEFVNELKVKGIFEKYRVFVRGGIWKNFFYKYPESNYMHKRMLMVSKLVRNNPEARKYLLRAQCNDAYWHGLFGGVYLPHLRRAIWNNLIKANSYVSLGKVIRDIDYDGFEEVLIENDNFYAVFKPSYGGSLVEFSSKNRLVNYVDVLARRWEHYHGYVESQFDGVASIHELEKKIPDEIRKEVAYDKYRRFMLQDHVVPLGTTLEDFMFSRQQEIGEFPRVPYSYELLDGGIRLKREHLGIEVEKTVKLVNDGFEVEYIVNNKTGNPVLFAVELNVAVQSIMESPGVLRGKEIVVDDKYAVGKFALKFEDEMEVWKYPVKTLSQSESGWDLIQQGVSYIVPIRLEDKIRFKLKFEEASG
- binding: binds
